Taken from: PubChem BioAssay AID504744 (Drosophila RNAi Screening Center, 2011)

Assay: 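Find genes whose loss alters insulin-driven dAkt phosphorylation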 (primary screen)
Cells: Drosophila Kc167 cells
Reagents: long dsRNA against Drosophila genes, 250 ng dsRNA per well of a 384-well plate
Timing: 3 days of knock-down, then overnight serum-free starvation before stimulation
Treatment: bovine insulin at 387 nM for 10 minutes after 12 h without serum
Detection: 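Per-well phospho-dAkt level from an in-cell fluorescent antibody stain, divided by a DNA-dye signal; log2 residuals turned into z-scores that take cell number into account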
Hit rule: 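Under insulin, a gene counts as a hit if the average z-score of two replicates lies above 2.5 or below -2.5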
The deposit covers about 23,000 reagents; shown is a random part of those that have a named target and a result. Over the whole deposit, 98 (0.43%) are marked active. 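Only hit calls are given; the phospho-dAkt signals, z-scores and hit direction were not deposited.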 Reagents against one gene are numbered here. A plus sign joins genes that one reagent is predicted to hit. No sequences are given here.

no.	gene	reagent	outcome
1	CG15317	1	inactive
2	luna	1	inactive
3	luna	2	inactive
4	luna	3	inactive
5	CG8230	1	inactive
6	Gpa2 (Glycoprotein hormone alpha 2)	1	inactive
7	SPR (Sex peptide receptor)	1	inactive
8	SPR (Sex peptide receptor)	2	inactive
9	SPR (Sex peptide receptor)	3	inactive
10	SPR (Sex peptide receptor)	4	inactive
11	CG3546	1	inactive
12	cactin	1	inactive
13	l(3)72Dp (lethal (3) 72Dp)	1	inactive
14	eEFSec	1	inactive
15	Mccc2 (Methylcrotonoyl-CoA carboxylase 2)	1	inactive
16	CG13305	1	inactive
17	CG14147	1	inactive
18	Zip102B (Zinc/iron regulated transporter-related protein 102B)	1	inactive
19	scramb1 (scramblase 1)	1	inactive
20	scramb1 (scramblase 1)	2	inactive
21	scramb1 (scramblase 1)	3	inactive
22	Sr-CIII (Scavenger receptor class C, type III)	1	inactive
23	CG14851	1	inactive
24	CG14851	2	inactive
25	CG42685	1	inactive
26	CG11695	1	inactive
27	Gr57a (Gustatory receptor 57a)	1	inactive
28	CG42521	1	inactive
29	CG5157	1	inactive
30	Amy-d + Amy-p	1	inactive
31	CG34181	1	inactive
32	vir (virilizer)	1	inactive
33	Mur89F (Mucin related 89F)	1	inactive
34	CG3301	1	inactive
35	w (white)	1	inactive
36	w (white)	2	inactive
37	CG30050	1	inactive
38	CG31633	1	inactive
39	Ocho	1	inactive
40	CG7786	1	inactive
41	CG33796	1	inactive
42	CG5265	1	inactive
43	CG6878	1	inactive
44	PAN2 (Poly(A)-binding protein-dependent poly(A) ribonuclease 2)	1	inactive
45	CG42561	1	inactive
46	CR31958 (pseudo)	1	inactive
47	CR31958 (pseudo)	2	inactive
48	Ir92a (Ionotropic receptor 92a)	1	inactive
49	fj (four-jointed)	1	inactive
50	Nop17l (Nop17 like)	1	inactive
51	CG31624	1	inactive
52	CG43394	1	inactive
53	CG5509	1	inactive
54	CG18266	1	inactive
55	Nup62 (Nucleoporin 62kD)	1	inactive
56	Best4 (Bestrophin 4)	1	inactive
57	CG10011	1	inactive
58	CG14400	1	inactive
59	CG14722	1	inactive
60	CG14673 (retired record)	1	inactive
61	CG17005	1	inactive
62	CG33267	1	inactive
63	Sas10 (Something about silencing 10)	1	inactive
64	CG10734	1	inactive
65	CG10063	1	inactive
66	CG12432 (retired record)	1	inactive
67	CG12842 (retired record)	1	inactive
68	CG1647	1	inactive
69	CG9338	1	inactive
70	CG34393	1	inactive
71	CG34393	2	inactive
72	CG10348	1	inactive
73	CG10348	2	inactive
74	Toll-6	1	inactive
75	Msh6	1	inactive
76	JTBR	1	inactive
77	mrt (martik)	1	inactive
78	CG9467	1	inactive
79	Lamtor2 + CG30120	1	inactive
80	Lamtor2 + CG30120	2	inactive
81	ppk24 (pickpocket 24)	1	inactive
82	sug (sugarbabe)	1	inactive
83	CG13526	1	inactive
84	PolrMT (RNA polymerase mitochondrial)	1	inactive
85	CG7126	1	inactive
86	frj (farjavit)	1	inactive
87	CG4714	1	inactive
88	Sgf29 (SAGA-associated factor 29kDa)	1	inactive
89	snoRNA:Me28S-C3227a + snoRNA:Me18S-A1061 + snoRNA:Me28S-C3227b + 7 more	1	inactive
90	CG16790	1	inactive
91	CG15059	1	inactive
92	Cfp1 (CXXC finger protein 1)	1	inactive
93	CG9132	1	inactive
94	CG42322	1	inactive
95	CG42322	2	inactive
96	CG42322	3	inactive
97	Pif2 (PFTAIRE-interacting factor 2)	1	inactive
98	CheA29a (Chemosensory protein A 29a)	1	inactive
99	CG14598	1	inactive
100	Cyp6a16Psi (retired record)	1	inactive
101	RpS18 (Ribosomal protein S18)	1	inactive
102	trem (trade embargo)	1	inactive

Quoted from the listing for reference:
no.	gene	reagent	outcome
37	CG30050	1	inactive
38	CG31633	1	inactive
39	Ocho	1	inactive
40	CG7786	1	inactive
41	CG33796	1	inactive
42	CG5265	1	inactive
43	CG6878	1	inactive
44	PAN2 (Poly(A)-binding protein-dependent poly(A) ribonuclease 2)	1	inactive
45	CG42561	1	inactive
46	CR31958 (pseudo)	1	inactive
47	CR31958 (pseudo)	2	inactive
48	Ir92a (Ionotropic receptor 92a)	1	inactive
49	fj (four-jointed)	1	inactive
50	Nop17l (Nop17 like)	1	inactive
51	CG31624	1	inactive
52	CG43394	1	inactive
53	CG5509	1	inactive
54	CG18266	1	inactive
55	Nup62 (Nucleoporin 62kD)	1	inactive
56	Best4 (Bestrophin 4)	1	inactive

Next records follow:
no.	gene	reagent	outcome
103	arg (arginase)	1	inactive
104	CG3081	1	inactive
105	Pgant6 (Polypeptide N-Acetylgalactosaminyltransferase 6)	1	inactive
106	CG32266	1	inactive
107	RpS26 (Ribosomal protein S26)	1	inactive
108	Jon65Aiii (Jonah 65Aiii)	1	inactive
109	PH4alphaNE1 (prolyl-4-hydroxylase-alpha NE1)	1	inactive
110	CG4074	1	inactive
111	Obp58d (Odorant-binding protein 58d)	1	inactive
112	tea (telomere ends associated)	1	inactive
113	tea (telomere ends associated)	2	inactive
114	CG8519	1	inactive
115	Hcs (Holocarboxylase synthetase)	1	inactive
116	Hcs (Holocarboxylase synthetase)	2	inactive
117	MED19 (Mediator complex subunit 19)	1	inactive
118	Alp4 (Alkaline phosphatase 4)	1	inactive
119	Osi21 (Osiris 21)	1	inactive
120	CG11529	1	inactive
121	CG18631 (retired record)	1	inactive
122	Vta1 (Vesicle trafficking 1)	1	inactive
123	Vta1 (Vesicle trafficking 1)	2	inactive
124	CG13563	1	inactive
125	Idh3g	1	inactive
126	dila (dilatory)	1	inactive
127	HnRNP-K (Heterogeneous nuclear ribonucleoprotein K)	1	inactive
128	HnRNP-K (Heterogeneous nuclear ribonucleoprotein K)	2	inactive
129	CG14052	1	inactive
130	CG14052	2	inactive
131	rempA (reduced mechanoreceptor potential A)	1	inactive
132	CG31789	1	inactive
133	CG7149	1	inactive
134	flr (flare)	1	inactive
135	CG30340	1	inactive
136	Dlip3 (Dorsal interacting protein 3)	1	inactive
137	CG7332	1	inactive
138	CG14356	1	inactive
139	sa (spermatocyte arrest)	1	inactive
140	Idua (alpha-L-iduronidase)	1	inactive
141	mthl4 (methuselah-like 4)	1	inactive
142	CG14227	1	inactive
143	CG15641	1	inactive
144	CG13028	1	inactive
145	Miga (Mitoguardin)	1	inactive
146	CkIalpha (Casein kinase Ialpha)	1	inactive
147	CkIalpha (Casein kinase Ialpha)	2	inactive
148	glo (glorund)	1	inactive
149	promL (prominin-like)	1	inactive
150	GstE13 (Glutathione S transferase E13)	1	inactive
151	vvl (ventral veins lacking)	1	inactive
152	CG11699	1	inactive
153	ND-B14.5AL (NADH dehydrogenase (ubiquinone) B14.5 A subunit-like)	1	inactive
154	nxf4 (nuclear export factor 4)	1	inactive
155	Or9a (Odorant receptor 9a)	1	inactive
156	COX7AL (Cytochrome c oxidase subunit 7A-like)	1	inactive
157	CG34461	1	inactive
